This is one part of the list. Hit calls seldom repeat between salt and free forms of one compound.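 Kinases, fused to nanoluciferase, were expressed in K562 cells; luminescence was measured every 4 h from 2 to 18 h as percent of control (DMSO = 100%, positive control = 0%). A time point is decreased if signal falls significantly (2 sigma). Hits were called by the authors by a rule that is not shown; the count of time points alone does not decide it.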
Experiments:
Test in all cases: kinase-Nluc reporter destabilization hit call (1 = scored as downregulated) (binary); higher = compound decreases kinase abundance
Settings in all cases: K562; 2-18 h
ABL1 = ABL1 (UniProt P00519)
AKT1 = AKT1 (UniProt P31749)
ALK = ALK (UniProt Q9UM73)
ARAF = ARAF (UniProt P10398)
AURKA = AURKA (UniProt O14965)
AURKB = AURKB (UniProt Q96GD4)
AURKC = AURKC (UniProt Q9UQB9)
BLK = BLK (UniProt P51451)
BMX = BMX (UniProt P51813)
BRAF = BRAF (UniProt P15056)
BRAF_V600E = tested on: BRAF_V600E
BTK = BTK (UniProt Q06187)
CAMK2A = CAMK2A (UniProt Q9UQM7)
CAMK2G = CAMK2G (UniProt Q13555)
CDK10 = CDK10 (UniProt Q15131)
CDK2 = CDK2 (UniProt P24941)
CDK3 = CDK3 (UniProt Q00526)
CDK4 = CDK4 (UniProt P11802)
CDK5 = CDK5 (UniProt Q00535)
CDK6 = CDK6 (UniProt Q00534)

Sequences of proteins named here, by UniProt entry; tags and fusion partners are left off. A change or cut given only in a name is not applied to a line headed by its entry.
UniProt P00519, whole entry: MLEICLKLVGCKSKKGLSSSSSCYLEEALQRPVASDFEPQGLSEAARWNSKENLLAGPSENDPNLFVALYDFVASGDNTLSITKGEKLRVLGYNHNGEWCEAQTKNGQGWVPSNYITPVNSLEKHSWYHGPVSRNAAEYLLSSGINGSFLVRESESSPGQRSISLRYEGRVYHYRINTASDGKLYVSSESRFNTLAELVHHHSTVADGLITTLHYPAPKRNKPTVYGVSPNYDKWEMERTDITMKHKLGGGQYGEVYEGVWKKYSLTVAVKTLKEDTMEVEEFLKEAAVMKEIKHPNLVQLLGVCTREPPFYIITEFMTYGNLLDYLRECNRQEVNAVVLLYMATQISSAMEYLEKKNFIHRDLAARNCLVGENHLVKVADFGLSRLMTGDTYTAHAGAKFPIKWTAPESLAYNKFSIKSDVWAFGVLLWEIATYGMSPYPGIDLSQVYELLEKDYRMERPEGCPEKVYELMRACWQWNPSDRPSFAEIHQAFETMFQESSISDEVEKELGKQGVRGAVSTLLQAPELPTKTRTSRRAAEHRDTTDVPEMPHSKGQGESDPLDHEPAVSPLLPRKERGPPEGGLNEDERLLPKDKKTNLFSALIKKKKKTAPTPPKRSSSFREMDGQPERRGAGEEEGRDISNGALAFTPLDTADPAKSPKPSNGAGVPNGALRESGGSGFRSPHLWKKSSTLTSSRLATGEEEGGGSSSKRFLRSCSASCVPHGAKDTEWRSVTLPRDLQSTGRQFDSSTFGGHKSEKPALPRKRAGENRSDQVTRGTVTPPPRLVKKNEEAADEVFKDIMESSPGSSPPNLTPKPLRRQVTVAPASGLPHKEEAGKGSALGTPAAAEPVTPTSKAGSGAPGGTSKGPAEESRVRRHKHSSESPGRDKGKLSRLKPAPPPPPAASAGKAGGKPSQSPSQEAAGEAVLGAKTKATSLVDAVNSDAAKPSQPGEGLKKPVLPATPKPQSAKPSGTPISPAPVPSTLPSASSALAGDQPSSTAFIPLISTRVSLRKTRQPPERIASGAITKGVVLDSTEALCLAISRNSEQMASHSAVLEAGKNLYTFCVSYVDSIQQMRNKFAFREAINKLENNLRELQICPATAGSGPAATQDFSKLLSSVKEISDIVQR
UniProt P31749: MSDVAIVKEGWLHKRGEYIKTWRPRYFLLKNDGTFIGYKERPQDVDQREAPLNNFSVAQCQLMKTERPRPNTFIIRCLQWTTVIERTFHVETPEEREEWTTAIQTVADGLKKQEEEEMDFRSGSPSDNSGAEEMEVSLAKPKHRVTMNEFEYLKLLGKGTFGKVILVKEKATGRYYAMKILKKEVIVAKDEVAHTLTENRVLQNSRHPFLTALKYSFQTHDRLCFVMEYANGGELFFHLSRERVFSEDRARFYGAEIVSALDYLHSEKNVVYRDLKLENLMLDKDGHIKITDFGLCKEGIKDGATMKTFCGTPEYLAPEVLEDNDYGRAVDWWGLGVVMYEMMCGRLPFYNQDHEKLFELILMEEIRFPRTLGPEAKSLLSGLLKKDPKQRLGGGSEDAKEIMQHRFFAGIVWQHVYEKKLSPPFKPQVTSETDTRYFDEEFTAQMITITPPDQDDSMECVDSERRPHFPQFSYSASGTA
UniProt O14965: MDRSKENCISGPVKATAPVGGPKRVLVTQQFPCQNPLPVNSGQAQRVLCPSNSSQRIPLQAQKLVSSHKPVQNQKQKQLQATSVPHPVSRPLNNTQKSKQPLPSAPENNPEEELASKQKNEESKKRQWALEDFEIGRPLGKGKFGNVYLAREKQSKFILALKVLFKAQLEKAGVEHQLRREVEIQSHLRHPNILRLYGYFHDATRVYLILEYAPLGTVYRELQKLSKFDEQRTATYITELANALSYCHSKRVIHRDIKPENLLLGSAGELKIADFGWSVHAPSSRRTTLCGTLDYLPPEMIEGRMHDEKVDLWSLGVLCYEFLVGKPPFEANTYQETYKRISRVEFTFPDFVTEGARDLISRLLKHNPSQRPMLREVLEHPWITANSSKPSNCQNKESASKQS
UniProt Q96GD4, whole entry: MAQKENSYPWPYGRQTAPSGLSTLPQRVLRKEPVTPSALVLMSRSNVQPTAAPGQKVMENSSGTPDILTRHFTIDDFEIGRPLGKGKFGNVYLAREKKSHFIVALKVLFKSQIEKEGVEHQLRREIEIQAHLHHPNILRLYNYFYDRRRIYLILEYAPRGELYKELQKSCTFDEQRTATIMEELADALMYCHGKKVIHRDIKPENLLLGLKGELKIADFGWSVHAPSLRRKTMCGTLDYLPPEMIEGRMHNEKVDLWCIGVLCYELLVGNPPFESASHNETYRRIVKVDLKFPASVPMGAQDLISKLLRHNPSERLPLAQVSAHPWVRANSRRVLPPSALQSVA
UniProt Q9UQB9: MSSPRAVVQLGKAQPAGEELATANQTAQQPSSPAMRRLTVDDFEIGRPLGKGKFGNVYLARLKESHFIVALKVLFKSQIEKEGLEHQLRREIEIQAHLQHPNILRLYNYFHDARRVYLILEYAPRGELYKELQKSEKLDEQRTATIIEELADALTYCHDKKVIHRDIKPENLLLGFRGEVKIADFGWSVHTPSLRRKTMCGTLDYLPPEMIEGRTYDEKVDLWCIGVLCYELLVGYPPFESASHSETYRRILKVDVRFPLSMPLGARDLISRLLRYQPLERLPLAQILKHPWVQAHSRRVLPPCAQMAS
UniProt P51813: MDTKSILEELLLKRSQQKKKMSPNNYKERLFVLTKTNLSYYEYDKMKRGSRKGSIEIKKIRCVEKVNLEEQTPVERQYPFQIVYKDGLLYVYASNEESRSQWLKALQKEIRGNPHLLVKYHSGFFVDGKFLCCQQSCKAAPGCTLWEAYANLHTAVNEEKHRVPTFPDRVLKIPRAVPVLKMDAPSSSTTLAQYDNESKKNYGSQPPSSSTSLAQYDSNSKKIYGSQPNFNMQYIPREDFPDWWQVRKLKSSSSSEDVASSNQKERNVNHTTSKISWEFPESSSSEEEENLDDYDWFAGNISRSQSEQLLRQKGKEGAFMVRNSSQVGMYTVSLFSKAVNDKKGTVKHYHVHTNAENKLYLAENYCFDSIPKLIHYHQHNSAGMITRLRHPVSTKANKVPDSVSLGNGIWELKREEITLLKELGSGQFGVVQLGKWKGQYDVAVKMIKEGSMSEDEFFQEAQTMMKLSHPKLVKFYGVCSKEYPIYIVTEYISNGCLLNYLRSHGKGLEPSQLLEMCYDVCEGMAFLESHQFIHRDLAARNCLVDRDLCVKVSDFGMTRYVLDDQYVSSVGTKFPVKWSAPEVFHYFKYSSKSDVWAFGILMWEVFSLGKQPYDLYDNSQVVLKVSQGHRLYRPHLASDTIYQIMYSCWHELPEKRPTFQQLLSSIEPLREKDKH
UniProt P15056, whole entry, looked up: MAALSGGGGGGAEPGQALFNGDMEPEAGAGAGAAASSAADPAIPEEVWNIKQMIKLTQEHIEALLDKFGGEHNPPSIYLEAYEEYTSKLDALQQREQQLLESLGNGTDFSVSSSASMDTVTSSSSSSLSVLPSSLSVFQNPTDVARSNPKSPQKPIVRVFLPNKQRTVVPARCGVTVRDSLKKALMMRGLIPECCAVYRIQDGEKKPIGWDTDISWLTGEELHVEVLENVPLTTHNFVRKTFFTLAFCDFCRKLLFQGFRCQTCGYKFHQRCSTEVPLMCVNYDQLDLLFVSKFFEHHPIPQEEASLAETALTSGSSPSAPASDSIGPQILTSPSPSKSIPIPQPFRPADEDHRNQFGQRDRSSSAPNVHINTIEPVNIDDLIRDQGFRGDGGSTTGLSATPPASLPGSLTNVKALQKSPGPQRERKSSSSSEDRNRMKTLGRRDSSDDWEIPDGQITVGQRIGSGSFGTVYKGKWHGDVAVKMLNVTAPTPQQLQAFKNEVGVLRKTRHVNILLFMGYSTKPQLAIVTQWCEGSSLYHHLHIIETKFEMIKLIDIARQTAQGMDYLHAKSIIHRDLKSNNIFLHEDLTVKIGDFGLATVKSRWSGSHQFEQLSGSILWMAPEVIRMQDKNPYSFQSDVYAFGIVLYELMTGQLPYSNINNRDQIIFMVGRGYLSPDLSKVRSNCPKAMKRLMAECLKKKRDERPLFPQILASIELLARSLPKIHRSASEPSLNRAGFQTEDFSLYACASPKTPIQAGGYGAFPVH
UniProt Q06187: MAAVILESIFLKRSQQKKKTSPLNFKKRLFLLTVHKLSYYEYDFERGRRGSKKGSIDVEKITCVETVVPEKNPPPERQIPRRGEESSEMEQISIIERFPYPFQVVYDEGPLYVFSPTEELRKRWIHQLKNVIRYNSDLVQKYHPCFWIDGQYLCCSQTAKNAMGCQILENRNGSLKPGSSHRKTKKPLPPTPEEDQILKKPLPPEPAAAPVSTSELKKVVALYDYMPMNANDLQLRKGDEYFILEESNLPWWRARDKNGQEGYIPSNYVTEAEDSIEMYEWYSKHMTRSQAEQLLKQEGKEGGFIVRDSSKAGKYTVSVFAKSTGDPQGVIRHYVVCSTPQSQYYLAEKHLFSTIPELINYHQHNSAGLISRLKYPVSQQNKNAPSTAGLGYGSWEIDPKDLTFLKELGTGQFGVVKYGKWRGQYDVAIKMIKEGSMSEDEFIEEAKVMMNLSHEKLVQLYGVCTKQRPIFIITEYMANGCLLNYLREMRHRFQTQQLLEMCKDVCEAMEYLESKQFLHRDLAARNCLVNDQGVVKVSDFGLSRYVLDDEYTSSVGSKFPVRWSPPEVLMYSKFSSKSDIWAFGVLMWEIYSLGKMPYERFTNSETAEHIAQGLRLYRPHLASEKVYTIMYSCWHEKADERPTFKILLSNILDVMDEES
UniProt Q9UQM7, whole entry: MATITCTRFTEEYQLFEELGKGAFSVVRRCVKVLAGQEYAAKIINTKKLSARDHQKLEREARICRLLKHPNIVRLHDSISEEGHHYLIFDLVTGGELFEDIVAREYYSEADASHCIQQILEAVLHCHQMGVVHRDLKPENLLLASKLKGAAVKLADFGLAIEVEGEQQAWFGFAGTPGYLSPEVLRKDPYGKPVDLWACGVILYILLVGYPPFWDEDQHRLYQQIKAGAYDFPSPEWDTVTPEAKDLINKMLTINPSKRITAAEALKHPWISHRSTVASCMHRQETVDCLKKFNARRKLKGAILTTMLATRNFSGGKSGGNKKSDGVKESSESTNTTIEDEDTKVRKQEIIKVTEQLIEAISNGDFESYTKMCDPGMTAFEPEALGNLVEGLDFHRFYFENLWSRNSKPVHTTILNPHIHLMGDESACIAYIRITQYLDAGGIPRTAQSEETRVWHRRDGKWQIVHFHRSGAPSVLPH
UniProt Q15131: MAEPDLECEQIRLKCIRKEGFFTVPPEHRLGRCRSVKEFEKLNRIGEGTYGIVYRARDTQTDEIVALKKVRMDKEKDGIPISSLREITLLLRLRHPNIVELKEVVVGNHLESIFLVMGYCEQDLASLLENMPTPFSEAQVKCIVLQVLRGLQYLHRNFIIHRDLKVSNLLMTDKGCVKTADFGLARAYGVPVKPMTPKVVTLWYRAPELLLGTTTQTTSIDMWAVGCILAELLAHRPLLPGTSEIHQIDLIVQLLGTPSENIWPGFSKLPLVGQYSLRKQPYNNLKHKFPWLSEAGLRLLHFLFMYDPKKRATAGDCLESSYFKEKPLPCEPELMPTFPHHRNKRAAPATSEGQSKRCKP
UniProt Q00526: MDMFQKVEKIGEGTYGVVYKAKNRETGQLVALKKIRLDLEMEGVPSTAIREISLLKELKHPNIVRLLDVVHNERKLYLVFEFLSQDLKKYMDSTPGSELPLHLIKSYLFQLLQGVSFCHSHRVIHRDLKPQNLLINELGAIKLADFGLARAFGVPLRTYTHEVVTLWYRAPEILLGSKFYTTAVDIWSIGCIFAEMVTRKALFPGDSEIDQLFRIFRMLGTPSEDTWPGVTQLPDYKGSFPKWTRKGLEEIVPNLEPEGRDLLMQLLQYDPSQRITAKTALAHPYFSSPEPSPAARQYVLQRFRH
UniProt P11802: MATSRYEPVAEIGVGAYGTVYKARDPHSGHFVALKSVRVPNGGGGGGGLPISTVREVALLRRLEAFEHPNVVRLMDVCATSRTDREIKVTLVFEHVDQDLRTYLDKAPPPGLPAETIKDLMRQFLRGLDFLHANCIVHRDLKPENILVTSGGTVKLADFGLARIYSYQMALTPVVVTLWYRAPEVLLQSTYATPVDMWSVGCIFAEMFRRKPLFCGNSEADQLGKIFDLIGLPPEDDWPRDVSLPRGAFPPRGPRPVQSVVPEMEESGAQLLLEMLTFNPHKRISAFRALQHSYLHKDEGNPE
UniProt Q00535, whole entry, looked up: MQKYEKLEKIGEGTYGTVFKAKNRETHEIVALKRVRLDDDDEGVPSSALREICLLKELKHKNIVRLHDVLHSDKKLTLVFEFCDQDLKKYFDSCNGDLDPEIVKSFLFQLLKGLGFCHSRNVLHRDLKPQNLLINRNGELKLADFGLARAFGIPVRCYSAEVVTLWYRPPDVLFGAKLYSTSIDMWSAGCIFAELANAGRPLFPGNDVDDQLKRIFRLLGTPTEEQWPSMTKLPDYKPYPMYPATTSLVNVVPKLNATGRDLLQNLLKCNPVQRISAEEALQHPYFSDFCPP

Measured: kinase-Nluc reporter destabilization hit call

COCCO[C@@H]1[C@H](O)[C@@H](CO)O[C@H]1n1cnc2c(=O)[nH]c(N)nc21 [2′-O-(2-Methoxyethyl)guanosine] (10 µM)
inactive: ABL1 = 0 | AKT1 = 0 | ALK 0 | ARAF 0 | AURKA 0 | AURKB 0 | AURKC 0 | BLK 0 | BMX 0 | BRAF 0 | BRAF_V600E 0 | BTK 0 | CAMK2A 0 | CAMK2G 0 | CDK10 = 0 | CDK2 = 0 | CDK3 = 0 | CDK4 = 0 | CDK5 = 0 | CDK6 = 0

CN1CCN(c2ccc(Nc3ncc4nc(Nc5ccccc5)n([C@@H]5CCN(S(=O)(=O)C6CC6)C5)c4n3)cc2)CC1 (2.5 µM)
inactive: ABL1 = 0 | AKT1 = 0 | ALK 0 | ARAF 0 | AURKA 0 | AURKB 0 | AURKC 0 | BLK 0 | BMX 0 | BRAF 0 | BRAF_V600E 0 | BTK 0 | CAMK2A 0 | CAMK2G 0 | CDK10 = 0 | CDK2 = 0 | CDK3 = 0 | CDK4 = 0 | CDK5 = 0 | CDK6 = 0

COc1cccc(-n2c(=O)[nH]c3cc(Cl)n(-c4ccc(-c5cccc(OC)c5O)cc4)c3c2=O)c1 (2.5 µM)
inactive: ABL1 = 0 | AKT1 = 0 | ALK 0 | ARAF 0 | AURKA 0 | AURKB 0 | AURKC 0 | BLK 0 | BMX 0 | BRAF 0 | BRAF_V600E 0 | BTK 0 | CAMK2A 0 | CAMK2G 0 | CDK10 = 0 | CDK2 = 0 | CDK3 = 0 | CDK4 = 0 | CDK5 = 0 | CDK6 = 0

COc1ccc([C@@H]2CC(=O)c3c(O)cc(O)cc3O2)cc1O [Hesperetin] (10 µM)
inactive: ABL1 = 0 | AKT1 = 0 | ALK 0 | ARAF 0 | AURKA 0 | AURKB 0 | AURKC 0 | BLK 0 | BMX 0 | BRAF 0 | BRAF_V600E 0 | BTK 0 | CAMK2A 0 | CAMK2G 0 | CDK10 = 0 | CDK2 = 0 | CDK3 = 0 | CDK4 = 0 | CDK5 = 0 | CDK6 = 0

CCn1c(=O)c(-c2ccc(-c3cncs3)cc2Cl)cc2cnc(Nc3ccc(N4CCN(C)CC4)cc3)nc21 (2.5 µM)
inactive: ABL1 = 0 | AKT1 = 0 | ALK 0 | ARAF 0 | AURKA 0 | AURKB 0 | AURKC 0 | BLK 0 | BMX 0 | BRAF 0 | BRAF_V600E 0 | BTK 0 | CAMK2A 0 | CAMK2G 0 | CDK10 = 0 | CDK2 = 0 | CDK3 = 0 | CDK4 = 0 | CDK5 = 0 | CDK6 = 0

COc1ccc2c(c1O)OC(C)(C)c1c-2ccc2c1C(=O)N(c1ccc(C(=O)c3ccccc3)cc1)C2=O [Ampkinone] (10 µM)
inactive: ABL1 = 0 | AKT1 = 0 | ALK 0 | ARAF 0 | AURKA 0 | AURKB 0 | AURKC 0 | BLK 0 | BMX 0 | BRAF 0 | BRAF_V600E 0 | BTK 0 | CAMK2A 0 | CAMK2G 0 | CDK10 = 0 | CDK2 = 0 | CDK3 = 0 | CDK4 = 0 | CDK5 = 0 | CDK6 = 0

CNC(=O)c1ccc(-c2cnc3cnc(C(=O)N(C)c4ccc(Cl)cc4)cn23)cc1 (2.5 µM)
inactive: ABL1 = 0 | AKT1 = 0 | ALK 0 | ARAF 0 | AURKA 0 | AURKB 0 | AURKC 0 | BLK 0 | BMX 0 | BRAF 0 | BRAF_V600E 0 | BTK 0 | CAMK2A 0 | CAMK2G 0 | CDK10 = 0 | CDK2 = 0 | CDK3 = 0 | CDK4 = 0 | CDK5 = 0 | CDK6 = 0

c1cc2c(cc1O[C@H]1OC[C@H]3[C@@H]1CO[C@@H]3c1ccc3c(c1)OCO3)OCO2 [Sesamolin] (10 µM)
inactive: ABL1 = 0 | AKT1 = 0 | ALK 0 | ARAF 0 | AURKA 0 | AURKB 0 | AURKC 0 | BLK 0 | BMX 0 | BRAF 0 | BRAF_V600E 0 | BTK 0 | CAMK2A 0 | CAMK2G 0 | CDK10 = 0 | CDK2 = 0 | CDK3 = 0 | CDK4 = 0 | CDK5 = 0 | CDK6 = 0

O=c1oc2cc(O)ccc2c2ccccc12 [Urolithin B] (10 µM)
inactive: ABL1 = 0 | AKT1 = 0 | ALK 0 | ARAF 0 | AURKA 0 | AURKB 0 | AURKC 0 | BLK 0 | BMX 0 | BRAF 0 | BRAF_V600E 0 | BTK 0 | CAMK2A 0 | CAMK2G 0 | CDK10 = 0 | CDK2 = 0 | CDK3 = 0 | CDK4 = 0 | CDK5 = 0 | CDK6 = 0

COc1ccc(CC(=O)Nc2nc3c(s2)CCc2ccccc2-3)cc1OC (10 µM)
inactive: ABL1 = 0 | AKT1 = 0 | ALK 0 | ARAF 0 | AURKA 0 | AURKB 0 | AURKC 0 | BLK 0 | BMX 0 | BRAF 0 | BRAF_V600E 0 | BTK 0 | CAMK2A 0 | CAMK2G 0 | CDK10 = 0 | CDK2 = 0 | CDK3 = 0 | CDK4 = 0 | CDK5 = 0 | CDK6 = 0

CC1=C2C(=O)O[C@@H](c3ccoc3)[C@]2(C)CCC1 [Fraxinellone] (10 µM)
inactive: ABL1 = 0 | AKT1 = 0 | ALK 0 | ARAF 0 | AURKA 0 | AURKB 0 | AURKC 0 | BLK 0 | BMX 0 | BRAF 0 | BRAF_V600E 0 | BTK 0 | CAMK2A 0 | CAMK2G 0 | CDK10 = 0 | CDK2 = 0 | CDK3 = 0 | CDK4 = 0 | CDK5 = 0 | CDK6 = 0

c1cn2cc(-c3ccc4cn[nH]c4c3)nc(Nc3ccc(N4CCOCC4)cc3)c2n1 [Entospletinib] (10 µM)
inactive: ABL1 = 0 | AKT1 = 0 | ALK 0 | ARAF 0 | AURKA 0 | AURKB 0 | AURKC 0 | BLK 0 | BMX 0 | BRAF 0 | BRAF_V600E 0 | BTK 0 | CAMK2A 0 | CAMK2G 0 | CDK10 = 0 | CDK2 = 0 | CDK3 = 0 | CDK4 = 0 | CDK5 = 0 | CDK6 = 0

O=C1NC(=O)/C(=C/c2ccc3c(c2)OC(F)(F)O3)S1 (10 µM)
inactive: ABL1 = 0 | AKT1 = 0 | ALK 0 | ARAF 0 | AURKA 0 | AURKB 0 | AURKC 0 | BLK 0 | BMX 0 | BRAF 0 | BRAF_V600E 0 | BTK 0 | CAMK2A 0 | CAMK2G 0 | CDK10 = 0 | CDK2 = 0 | CDK3 = 0 | CDK4 = 0 | CDK5 = 0 | CDK6 = 0

O=C(NCCCNc1nc(Nc2cccc(NC(=O)N3CCCC3)c2)ncc1I)c1cccs1 (2.5 µM)
inactive: ABL1 = 0 | AKT1 = 0 | ALK 0 | ARAF 0 | AURKA 0 | AURKB 0 | AURKC 0 | BLK 0 | BMX 0 | BRAF 0 | BRAF_V600E 0 | BTK 0 | CAMK2A 0 | CAMK2G 0 | CDK10 = 0 | CDK2 = 0 | CDK3 = 0 | CDK4 = 0 | CDK5 = 0 | CDK6 = 0

COc1ccc(C(=O)Nc2sc3c(c2C(N)=O)CCCC3)cc1OC (10 µM)
inactive: ABL1 = 0 | AKT1 = 0 | ALK 0 | ARAF 0 | AURKA 0 | AURKB 0 | AURKC 0 | BLK 0 | BMX 0 | BRAF 0 | BRAF_V600E 0 | BTK 0 | CAMK2A 0 | CAMK2G 0 | CDK10 = 0 | CDK2 = 0 | CDK3 = 0 | CDK4 = 0 | CDK5 = 0 | CDK6 = 0

Nc1ncnc2c1c(-c1ccc(Oc3ccccc3)cc1)nn2C1CCCNC1 (racemic) (2.5 µM)
inactive: ABL1 = 0 | AKT1 = 0 | ALK 0 | ARAF 0 | AURKA 0 | AURKB 0 | AURKC 0 | BLK 0 | BMX 0 | BRAF 0 | BRAF_V600E 0 | BTK 0 | CAMK2A 0 | CAMK2G 0 | CDK10 = 0 | CDK2 = 0 | CDK3 = 0 | CDK4 = 0 | CDK5 = 0 | CDK6 = 0

Cn1c(=O)c(F)c(Nc2ccc(I)cc2F)c2c(=O)n(C[C@@H](O)CO)cnc21 (10 µM)
inactive: ABL1 = 0 | AKT1 = 0 | ALK 0 | ARAF 0 | AURKA 0 | AURKB 0 | AURKC 0 | BLK 0 | BMX 0 | BRAF 0 | BRAF_V600E 0 | BTK 0 | CAMK2A 0 | CAMK2G 0 | CDK10 = 0 | CDK2 = 0 | CDK3 = 0 | CDK4 = 0 | CDK5 = 0 | CDK6 = 0

3 entries already listed, arranged by formula weight, largest number first:
CCn1c(=O)c(-c2ccc(-c3cncs3)cc2Cl)cc2cnc(Nc3ccc(N4CCN(C)CC4)cc3)nc21 (2.5 µM)
inactive: ABL1 = 0 | AKT1 = 0 | ALK 0 | ARAF 0 | AURKA 0 | AURKB 0 | AURKC 0 | BLK 0 | BMX 0 | BRAF 0 | BRAF_V600E 0 | BTK 0 | CAMK2A 0 | CAMK2G 0 | CDK10 = 0 | CDK2 = 0 | CDK3 = 0 | CDK4 = 0 | CDK5 = 0 | CDK6 = 0

Nc1ncnc2c1c(-c1ccc(Oc3ccccc3)cc1)nn2C1CCCNC1 (racemic) (2.5 µM)
inactive: ABL1 = 0 | AKT1 = 0 | ALK 0 | ARAF 0 | AURKA 0 | AURKB 0 | AURKC 0 | BLK 0 | BMX 0 | BRAF 0 | BRAF_V600E 0 | BTK 0 | CAMK2A 0 | CAMK2G 0 | CDK10 = 0 | CDK2 = 0 | CDK3 = 0 | CDK4 = 0 | CDK5 = 0 | CDK6 = 0

CC1=C2C(=O)O[C@@H](c3ccoc3)[C@]2(C)CCC1 [Fraxinellone] (10 µM)
inactive: ABL1 = 0 | AKT1 = 0 | ALK 0 | ARAF 0 | AURKA 0 | AURKB 0 | AURKC 0 | BLK 0 | BMX 0 | BRAF 0 | BRAF_V600E 0 | BTK 0 | CAMK2A 0 | CAMK2G 0 | CDK10 = 0 | CDK2 = 0 | CDK3 = 0 | CDK4 = 0 | CDK5 = 0 | CDK6 = 0

(list continues)

Cc1c(NC(=O)OC[C@@H]2COCCN2)cn2ncnc(Nc3ccc4c(cnn4Cc4cccc(F)c4)c3)c12 (10 µM)
inactive: ABL1 = 0 | AKT1 = 0 | ALK 0 | ARAF 0 | AURKA 0 | AURKB 0 | AURKC 0 | BLK 0 | BMX 0 | BRAF 0 | BRAF_V600E 0 | BTK 0 | CAMK2A 0 | CAMK2G 0 | CDK10 = 0 | CDK2 = 0 | CDK3 = 0 | CDK4 = 0 | CDK5 = 0 | CDK6 = 0

— the supplement of paper PMC12823440, “Inhibitors supercharge kinase turnover through native proteolytic circuits” (Nature, 2025)
